Article PMC12670160, “A drug-repurposing screen of FDA- and EMA-approved drugs identifies two NF-κB inhibitors active against eumycetoma” (Journal of Antimicrobial Chemotherapy, 2025)
Where a name gives a salt, the structure may show the parent alone. Read-outs that look alike come from different tables or passages of the source. The whole screen tested about 5,300 compounds, of which about 130 (2.5%) showed an effect of 50% or more. The list shows a part of the results.

System: M. mycetomatis strain mm55
Details: 96 h, 2 µM
[1] = primary screen, metabolic activity vs growth control, inhibitor

Compound | % viability (m. mycetomatis hyphae) [%] | % viability [1] [%]
CCN(C(C)=O)c1cccc(-c2ccnc3c(C#N)cnn23)c1 [ONC0004001, zaleplon] | 74.66 | 
CN(C)NC(=O)CCC(=O)O [ONC0000066, daminozide] | 102.5 | 
Cc1cccc(C)c1N=C1NCCCS1 [ONC0000628, xylazine] | 103.4 | 
CN(C)CCNc1nc2cc(O)ccc2c2c1C(=O)c1ccccc1-2 [ONC0002255, tas103 dihydrochloride] | 114.4 | 
C1CCC(NC2CCCCC2)CC1 [ONC0002909, dicyclohexylamine] | 81.67 | 
OC1(c2ccc(Cl)cc2)c2ccccc2C2=NCCN21 (stereo not drawn) [ONC0005297, mazindol] | 110.5 | 
C[C@]12CCC(=O)C=C1CC[C@@H]1[C@@H]2C(=O)C[C@]2(C)C(=O)CC[C@@H]12 [ONC0001042, adrenosterone] | 82.56 | 
CC(N)Cc1cccc(O)c1 (stereo not drawn) [ONC0002604, gepefrine] | 85.86 | 
CC(C)C[C@H](CN)CC(=O)O [ONC0004046, pregabalin] | 71.03 | 
CC[C@H]1[C@@H]2C[C@H]3[C@@H]4N(C)c5ccccc5[C@]45C[C@@H]([C@H]2[C@H]5O)N3[C@@H]1O [ONC0003392, ajmaline] |  | 69.14
OCC(Br)(Br)Br [ONC0003374, 222tribromoethanol] | 70.94 | 
C[C@]12Cc3c[nH]nc3C[C@@H]1CC[C@@H]1[C@@H]2CC[C@@]2(C)[C@H]1CC[C@]2(C)O [ONC0002121, stanozolol] | 96.32 | 
O=C(O)C(F)(F)C(F)(F)C(F)(F)C(F)(F)C(F)(F)C(F)(F)C(F)(F)F [ONC0004483, pentadecafluorooctanoic acid] | 100.8 | 
Cc1cc(C(=O)CN2CCCC2)c(C)n1-c1ccc(F)cc1 [ONC0005142, iu1] | 96.41 | 
C[C@@]12N[C@@H](Cc3ccccc31)c1ccccc12 [ONC0002573, dizocilpine maleate] | 62.56 | 
C[C@H](N)C(=O)NCC(=O)N[C@H]1CSSC[C@@H](C(=O)O)NC(=O)[C@H](CO)NC(=O)[C@H]([C@@H](C)O)NC(=O)[C@H](Cc2ccccc2)NC(=O)[C@H]([C@@H](C)O)NC(=O)[C@H](CCCCN)NC(=O)[C@H](Cc2c[nH]c3ccccc23)NC(=O)[C@H](Cc2ccccc2)NC(=O)[C@H](Cc2ccccc2)NC(=O)[C@H](CC(N)=O)NC(=O)[C@H](CCCCN)NC1=O [ONC0001935, somatostatin] | 65.38 | 
NCc1cc(=O)[nH]o1 [ONC0000178, muscimol] | 77.49 | 
CC(=O)[C@H]1CC[C@H]2[C@@H]3CC[C@@H]4C[C@H](O)CC[C@]4(C)[C@H]3CC[C@]12C [ONC0001671, allopregnanolone] | 102.1 | 
COC(=O)C(c1ccccc1)C1CCCCN1 (stereo not drawn) [ONC0003968, methylphenidate hydrochloride] | 55.87 | 
CCOC(=O)c1ccccc1OC(N)=O [ONC0003220, ethyl2carbamoyloxybenzoate] | 78.7 | 

Whole records, looked up by structure.
CN(C)CCNc1nc2cc(O)ccc2c2c1C(=O)c1ccccc1-2 [ONC0002255, tas103 dihydrochloride] is listed with % viability (m. mycetomatis hyphae) [%]: 114.4
Cc1cc(C(=O)CN2CCCC2)c(C)n1-c1ccc(F)cc1 [ONC0005142, iu1] is listed with % viability (m. mycetomatis hyphae) [%]: 96.41
C[C@]12Cc3c[nH]nc3C[C@@H]1CC[C@@H]1[C@@H]2CC[C@@]2(C)[C@H]1CC[C@]2(C)O [ONC0002121, stanozolol] is listed with % viability (m. mycetomatis hyphae) [%]: 96.32

Additional structures:

Compound | % viability (m. mycetomatis hyphae) [%] | % viability [1] [%]
CN1C2C=C(c3sccc3Br)CC1CC2 (stereo not drawn) [ONC0000153, ns3861] | 72.45 | 
COc1cc(Br)c(Nc2nc(-c3c(C)nc4ncccn34)cs2)c(Br)c1 [ONC0004411, ptc209] | 113.4 | 
COC(=O)C1=C(C)NC(C)=C(C(=O)OCCCN2CCC(c3ccccc3)(c3ccccc3)CC2)[C@@H]1c1cccc([N+](=O)[O-])c1 [ONC0000198, dexniguldipine] | 76.6 | 
O=c1[nH]c(=O)n(Cl)c(=O)n1Cl [ONC0005487, troclosene sodium] | 96.21 | 
CS(=O)(=O)CS(=O)(=O)OCCCl [ONC0005355, clomesone] | 92.35 | 
COc1ccc(C(=O)c2c(C)n(CCN3CCOCC3)c3cc(I)ccc23)cc1 [ONC0003455, am630 iodopravadoline] | 49.32 | 
O=P1(NCCCl)OCCCN1CCCl (stereo not drawn) [ONC0003997, ifosfamide] | 56.09 | 
Oc1ccc2c3c1O[C@H]1c4oc5ccccc5c4C[C@@]4(O)[C@@H](C2)N(CC2CC2)CC[C@]314 [ONC0001439, naltriben] | 49.95 | 
CCCCC/C=C\C/C=C\C/C=C\C/C=C\CCCC(=O)Nc1ccc(O)cc1 [ONC0000209, am404] | 63.87 | 
O=C1CC2OCC=C3CN4CC[C@]56c7ccccc7N1C5[C@H]2[C@H]3CC46 (stereo partly drawn) [ONC0003403, strychnine sulfate] | 68.79 | 
N#Cc1ccccc1-c1cc(-c2ccccn2)cn(-c2ccccc2)c1=O [ONC0001116, perampanel] | 62.98 | 
O=C(Oc1ccc([N+](=O)[O-])cc1)N1CCC(C(O)(c2ccc3c(c2)OCO3)c2ccc3c(c2)OCO3)CC1 [ONC0004330, jzl184] | 83.24 | 
C=C1[C@@H](C)[C@H]2[C@H](Cc3ccccc3)NC(=O)[C@]23OC(=O)/C=C/[C@H](O)CCC[C@@H](C)C/C=C/[C@H]3[C@@H]1O [ONC0005534, cytochalasin b] |  | 102.9
NC(=O)C[S+]([O-])C(c1ccccc1)c1ccccc1 (stereo not drawn) [ONC0003965, modafinil] | 69.84 | 
N=CNc1ccc2[nH]c3c(c2c1)C[C@@]1(O)C2Cc4ccc(O)c5c4[C@@]1(CCN2CC1CC1)[C@H]3O5 [ONC0000051, gnti] | 53.25 | 
Oc1ncc(N(CCCl)CCCl)c(O)n1 [ONC0005606, uracilmustard] | 90.14 | 
Clc1ccccc1C(c1ccccc1)(c1ccccc1)n1cccn1 [ONC0001139, tram34] | 85.9 | 
C=C[C@H]1C[N@]2CC[C@H]1C[C@@H]2[C@@H](OC(=O)OCC)c1ccnc2ccc(OC)cc12 [ONC0003281, quinine ethyl carbonate] | 97.38 | 
CN1[C@@H]2CC[C@H]1C[C@@H](OC1c3ccccc3CCc3ccccc31)C2 [ONC0002966, deptropine] |  | 88.93
O=C(O)CCCCCCNC1c2ccccc2CCc2ccccc21 [ONC0001787, amineptine] | 104.5 | 

Compound | % viability (m. mycetomatis hyphae) [%] | % viability [1] [%]
OC12C3C4CC5C6C4C1C6C(C53)N2CCc1cccc(F)c1 (stereo not drawn) [ONC0003587, tc1] | 102 | 
Cn1cc(C(=O)C(=O)N[C@H]2CN3CCC2CC3)c2ccccc21 [ONC0002562, rs56812] | 62.85 | 
CC[C@@H](c1cccc(O)c1)[C@@H](C)CN(C)C [ONC0001216, tapentadol hydrochloride] | 104.5 | 
C[C@@H](N)[C@@H](O)c1ccccc1 [ONC0000448, 1s2rphenylpropanolamine hydrochloride] | 91.03 | 
C[C@@H](N)C(=O)N[C@@H](CO)C(=O)N[C@H](C(=O)N[C@H](C(=O)N[C@H](C(=O)N[C@@H](CC(N)=O)C(=O)N[C@@H](Cc1ccc(O)cc1)C(=O)N[C@H](C(N)=O)[C@@H](C)O)[C@@H](C)O)[C@@H](C)O)[C@@H](C)O [ONC0001968, dapta] |  | 96.08
C#Cc1cccc2c1c(C(=O)c1ccc(Cn3c(C)nc4cnccc43)c(F)c1)cn2C(=O)N(C)C [ONC0001879, abt491] | 73.37 | 
CCOC(=O)c1ccc(-c2ccc(OC(=O)N(C)Cc3cccc(-c4ccncc4)c3)cc2)cc1 [ONC0001242, wwl113] | 84.51 | 
C=C(C)CN1CC[C@]23c4c5ccc(O)c4O[C@H]2c2[nH]c4ccccc4c2C[C@@]3(O)C1C5 [ONC0001783, sdm25n] | 88.61 | 
CC(C)C[C@H](NC(=O)[C@H](Cc1ccccc1)NC(=O)CNC(=O)[C@H](C)NC(=O)[C@@H](N)Cc1ccc(O)cc1)C(=O)O [ONC0001965, dadle] | 88.98 | 
Cc1nccc2c1[nH]c1ccccc12 [ONC0000054, harmane] | 123.4 | 
C[C@]12C=CC(=O)C=C1CC[C@@H]1[C@@H]2CC[C@]2(C)OC(=O)CC[C@@H]12 [ONC0001092, testolactone] | 64.15 | 
NC(=S)N/N=C/c1coc2ccccc2c1=O [ONC0001578, fpa124] | 55.38 | 
O=C1CCCN1CC#CCN1CCCC1 [ONC0004217, oxotremorine sesquifumarate] | 59.84 | 
C[C@]12N[C@H](Cc3ccccc31)c1ccccc12 [ONC0001642, dizocilpine] | 59.2 | 
CC(C)n1cnc2c(C(=O)N[C@H]3CN4CCC3CC4)cc(Cl)cc21 [ONC0000102, rs16566] | 74.83 | 
C[C@]12CCC(=O)C=C1CC[C@@H]1[C@@H]2[C@@H](O)C[C@]2(C)C(=O)CC[C@@H]12 [ONC0005400, npc01] | 89.74 | 
C[C@H]1CN(Cc2ccc(CC(=O)N3CCC(Nc4cccc(F)c4)CC3)cc2)CCN1 [ONC0001179, camicinal] | 144.9 | 
C[C@](O)(COc1ccc(C#N)cc1)C(=O)Nc1ccc(C#N)c(C(F)(F)F)c1 [ONC0004736, mk2866 gtx024] | 95.08 | 
CC(=O)Nc1ccc(OC[C@](C)(O)C(=O)Nc2ccc([N+](=O)[O-])c(C(F)(F)F)c2)cc1 [ONC0004917, andarine gtx007] | 124.1 | 
COc1ccc2c3c([nH]c2c1)[C@H](CC(C)C)N1C(=O)[C@H](CCC(=O)OC(C)(C)C)NC(=O)[C@@H]1C3 [ONC0001315, ko 143] | 71.5 | 
